This note sets out measurements from paper PMC8256288.

By UniProt entry, the sequences of proteins in these tests, tags left out. Where a name states a change or a piece, a line headed by the entry shows the natural chain unless it says otherwise. Chains listed by the source or under a name are the forms on record and can include a tag or linker.
UniProt Q5FBB7: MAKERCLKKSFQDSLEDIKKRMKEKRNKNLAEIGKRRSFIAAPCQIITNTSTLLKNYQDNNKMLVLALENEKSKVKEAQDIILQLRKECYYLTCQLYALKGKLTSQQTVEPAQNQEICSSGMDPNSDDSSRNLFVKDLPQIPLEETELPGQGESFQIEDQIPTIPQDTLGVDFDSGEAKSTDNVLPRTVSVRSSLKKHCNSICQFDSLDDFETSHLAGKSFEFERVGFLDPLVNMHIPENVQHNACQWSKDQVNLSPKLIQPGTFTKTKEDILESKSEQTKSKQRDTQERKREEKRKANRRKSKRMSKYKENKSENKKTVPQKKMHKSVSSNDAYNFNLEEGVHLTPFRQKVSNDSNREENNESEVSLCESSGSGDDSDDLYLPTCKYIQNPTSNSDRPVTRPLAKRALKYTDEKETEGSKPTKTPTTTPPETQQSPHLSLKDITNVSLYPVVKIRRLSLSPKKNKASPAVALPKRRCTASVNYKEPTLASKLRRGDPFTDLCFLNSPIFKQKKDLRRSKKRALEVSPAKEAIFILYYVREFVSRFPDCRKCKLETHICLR
TurboID‐hSgo1 3A (Q5FBB7, form named): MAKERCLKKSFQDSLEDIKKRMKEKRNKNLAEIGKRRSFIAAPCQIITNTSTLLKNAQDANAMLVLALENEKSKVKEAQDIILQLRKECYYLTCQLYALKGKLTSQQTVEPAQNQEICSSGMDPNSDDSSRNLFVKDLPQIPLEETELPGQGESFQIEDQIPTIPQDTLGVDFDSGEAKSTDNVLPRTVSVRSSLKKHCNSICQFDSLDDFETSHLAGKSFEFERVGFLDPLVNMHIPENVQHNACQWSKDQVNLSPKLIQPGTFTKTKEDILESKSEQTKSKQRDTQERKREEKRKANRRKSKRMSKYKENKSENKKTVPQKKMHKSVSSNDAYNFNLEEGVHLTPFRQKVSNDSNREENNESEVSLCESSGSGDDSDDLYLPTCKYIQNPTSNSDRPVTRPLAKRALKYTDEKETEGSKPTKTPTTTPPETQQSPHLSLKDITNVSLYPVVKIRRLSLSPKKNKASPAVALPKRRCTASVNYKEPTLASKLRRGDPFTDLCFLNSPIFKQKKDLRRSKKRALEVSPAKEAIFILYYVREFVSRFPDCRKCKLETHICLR
TurboID‐hSgo1 4A (Q5FBB7, form named): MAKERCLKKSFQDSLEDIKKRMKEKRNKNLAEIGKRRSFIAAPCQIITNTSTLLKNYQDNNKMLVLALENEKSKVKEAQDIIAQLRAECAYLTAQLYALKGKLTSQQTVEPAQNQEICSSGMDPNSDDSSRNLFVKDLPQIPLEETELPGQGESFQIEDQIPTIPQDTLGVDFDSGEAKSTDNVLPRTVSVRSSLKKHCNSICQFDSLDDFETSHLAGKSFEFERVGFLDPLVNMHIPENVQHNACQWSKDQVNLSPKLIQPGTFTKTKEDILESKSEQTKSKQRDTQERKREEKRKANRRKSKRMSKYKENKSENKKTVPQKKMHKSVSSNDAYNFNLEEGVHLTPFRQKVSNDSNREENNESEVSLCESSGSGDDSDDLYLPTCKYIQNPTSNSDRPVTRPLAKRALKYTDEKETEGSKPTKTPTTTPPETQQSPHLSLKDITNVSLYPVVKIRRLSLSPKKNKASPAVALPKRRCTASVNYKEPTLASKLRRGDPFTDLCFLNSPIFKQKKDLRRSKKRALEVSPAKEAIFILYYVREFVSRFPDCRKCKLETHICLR
UniProt Q96GD4: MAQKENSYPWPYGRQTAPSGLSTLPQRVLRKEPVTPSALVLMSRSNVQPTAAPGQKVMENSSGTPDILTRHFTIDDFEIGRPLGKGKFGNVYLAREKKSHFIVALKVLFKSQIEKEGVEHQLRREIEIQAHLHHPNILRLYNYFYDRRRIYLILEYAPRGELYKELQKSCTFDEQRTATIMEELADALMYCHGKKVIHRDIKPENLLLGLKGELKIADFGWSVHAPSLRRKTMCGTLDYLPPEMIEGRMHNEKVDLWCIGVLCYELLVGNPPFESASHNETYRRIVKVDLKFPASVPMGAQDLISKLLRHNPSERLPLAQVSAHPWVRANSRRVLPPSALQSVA
UniProt Q9NQS7: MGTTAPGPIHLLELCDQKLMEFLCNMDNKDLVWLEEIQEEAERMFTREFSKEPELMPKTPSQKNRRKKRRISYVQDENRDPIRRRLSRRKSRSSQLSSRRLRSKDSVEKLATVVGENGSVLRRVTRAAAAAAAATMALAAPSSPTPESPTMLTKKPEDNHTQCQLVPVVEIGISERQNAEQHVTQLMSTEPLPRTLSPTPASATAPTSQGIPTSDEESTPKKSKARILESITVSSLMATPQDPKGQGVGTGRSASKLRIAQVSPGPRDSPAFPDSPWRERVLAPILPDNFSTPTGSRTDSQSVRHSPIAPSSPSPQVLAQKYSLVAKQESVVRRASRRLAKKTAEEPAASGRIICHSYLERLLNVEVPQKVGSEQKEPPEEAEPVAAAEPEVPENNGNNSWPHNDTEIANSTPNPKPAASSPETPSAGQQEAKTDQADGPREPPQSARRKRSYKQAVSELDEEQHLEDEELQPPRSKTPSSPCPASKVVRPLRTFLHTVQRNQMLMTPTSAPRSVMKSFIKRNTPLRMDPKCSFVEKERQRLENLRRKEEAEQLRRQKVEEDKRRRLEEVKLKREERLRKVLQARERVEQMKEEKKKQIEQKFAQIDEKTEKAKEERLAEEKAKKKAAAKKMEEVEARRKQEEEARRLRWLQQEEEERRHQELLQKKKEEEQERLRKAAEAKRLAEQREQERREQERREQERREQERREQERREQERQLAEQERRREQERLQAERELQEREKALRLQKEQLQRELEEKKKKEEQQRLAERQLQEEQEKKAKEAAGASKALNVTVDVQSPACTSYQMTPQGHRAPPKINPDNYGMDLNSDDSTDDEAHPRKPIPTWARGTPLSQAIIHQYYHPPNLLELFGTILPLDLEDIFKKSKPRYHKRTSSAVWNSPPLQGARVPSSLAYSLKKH

Some targets named below: TurboID‐hSgo1 3A (human) (UniProt Q5FBB7); TurboID‐hSgo1 4A (human) (UniProt Q5FBB7); TurboID‐hSgo1 WT (human) (UniProt Q5FBB7).
Common to all, as to experiment: proximity labelling; TurboID-hSgo1 WT, 3A, 4A in stable HeLa cells, 50 µM biotin 1 h, mitotic shake-off, RIPA lysis, streptavidin agarose, washes with 2% SDS, label-free LC-MS/MS

Results are given in words; binding and its absence hold for the method and conditions named. In cells and extracts the contact can be indirect. A yes stands for co-enrichment or nearness to the bait. Other partners may have been found.

On to “Aurora B (endogenous) (from UniProt Q96GD4 1-344)”, for which the binding result with TurboID‐hSgo1 3A (human), in the assay with TurboID‐hSgo1 4A (human) and with TurboID‐hSgo1 WT (human) was “binds” in each case.
Regarding “INCENP (endogenous) (from UniProt Q9NQS7 1-918)”, the binding entry with TurboID‐hSgo1 3A (human), with TurboID‐hSgo1 4A (human) and in the assay with TurboID‐hSgo1 WT (human) was “binds” throughout.

B1: Borealin (endogenous) (protein, UniProt Q53HL2 1-280)
chain: MAPRKGSSRVAKTNSLRRRKLASFLKDFDREVEIRIKQIESDRQNLLKEVDNLYNIEILRLPKALREMNWLDYFALGGNKQALEEAATADLDITEINKLTAEAIQTPLKSAKTRKVIQVDEMIVEEEEEEENERKNLQTARVKRCPPSKKRTQSIQGKGKGKRSSRANTVTPAVGRLEVSMVKPTPGLTPRFDSRVFKTPGLRTPAAGERIYNISGNGSPLADSKEIFLTVPVGGGESLRLLASDLQRHSIAQLDPEALGNIKKLSNRLAQICSSIRTHK
As for B1, the binding result with TurboID‐hSgo1 4A (human) and with TurboID‐hSgo1 WT (human) was “binds” in each case.
